According to the supplement of paper PMC10849652:
This is one part of the list.

Chains of the proteins cited; added tags and fusions are not shown. Lines headed by an entry give the natural chain unless they say otherwise; changes in a name come on top.
UniProt Q8NEZ5: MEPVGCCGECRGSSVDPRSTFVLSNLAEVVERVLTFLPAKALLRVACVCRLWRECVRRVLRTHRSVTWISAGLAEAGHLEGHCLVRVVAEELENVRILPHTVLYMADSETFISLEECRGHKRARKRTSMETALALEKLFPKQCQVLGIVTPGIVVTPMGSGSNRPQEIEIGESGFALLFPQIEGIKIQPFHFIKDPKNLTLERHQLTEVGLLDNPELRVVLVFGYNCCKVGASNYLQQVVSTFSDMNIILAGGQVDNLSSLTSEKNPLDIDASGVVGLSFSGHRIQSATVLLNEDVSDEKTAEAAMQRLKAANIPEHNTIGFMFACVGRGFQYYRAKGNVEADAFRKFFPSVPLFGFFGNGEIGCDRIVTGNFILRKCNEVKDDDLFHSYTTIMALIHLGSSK
UniProt Q9NWM8: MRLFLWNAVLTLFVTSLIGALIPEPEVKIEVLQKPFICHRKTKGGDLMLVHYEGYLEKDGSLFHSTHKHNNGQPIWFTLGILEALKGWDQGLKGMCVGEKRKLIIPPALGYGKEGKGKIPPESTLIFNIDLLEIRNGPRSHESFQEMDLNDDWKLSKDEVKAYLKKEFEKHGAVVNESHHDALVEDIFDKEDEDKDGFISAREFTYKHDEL
UniProt Q6UN15: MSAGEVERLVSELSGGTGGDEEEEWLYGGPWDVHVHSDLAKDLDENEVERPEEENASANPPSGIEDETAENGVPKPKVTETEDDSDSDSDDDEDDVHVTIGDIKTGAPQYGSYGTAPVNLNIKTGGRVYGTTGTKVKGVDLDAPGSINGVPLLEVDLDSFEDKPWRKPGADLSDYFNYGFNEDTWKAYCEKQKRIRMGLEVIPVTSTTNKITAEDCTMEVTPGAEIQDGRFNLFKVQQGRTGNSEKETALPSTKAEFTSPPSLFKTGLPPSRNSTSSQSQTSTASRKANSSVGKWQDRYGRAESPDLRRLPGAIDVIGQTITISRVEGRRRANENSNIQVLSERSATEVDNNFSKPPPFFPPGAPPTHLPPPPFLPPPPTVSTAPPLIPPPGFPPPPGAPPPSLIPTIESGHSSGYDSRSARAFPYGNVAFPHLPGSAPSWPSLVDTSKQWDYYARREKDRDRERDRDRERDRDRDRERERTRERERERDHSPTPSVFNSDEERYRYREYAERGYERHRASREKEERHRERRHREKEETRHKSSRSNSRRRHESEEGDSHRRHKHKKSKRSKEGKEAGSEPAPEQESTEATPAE

Columns and labels:
Assay in all cases: log2 fold change, soluble protein after heating vs DMSO (PISA); higher = thermal stabilisation; K562 cells, 10 uM, 30 min; active = over 0.2 and 3.5 SD of the protein, either way, in both replicates (recomputed)
[1] = compound: C1=CC=C(C=C1)[C@H](COC2=CC3=C(C=C2)NC(=O)N3)NC(=O)C4=CC=CN(C4=O)CC5=CC(=C(C=C5)F)F
Procedure, shortened: (§1)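 Soluble protein was quantified by TMTpro 16plex LC-MS/MS after channel sums were equalised. It was obtained as the supernatant after 21,000xg for 90 min from pooled aliquots of K562 cells (2×10^6 cells/mL, 10 μM compound, 30 min) heated for 3 min across 48°C-58°C and extracted in PBS with 0.5% NP-40 at 4°C. Thermal stability values are relative to control samples and come from duplicates. They are given as log2 fold changes.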

[2] = compound: CC1=C(SC2=C1C(=N[C@H](C3=NN=C(N32)C)CC(=O)N)C4=CC=C(C=C4)Cl)C
Procedure, shortened: as §1

[3] = compound: CC1=C2C(=CC=C1)N=C(N(C2=O)C3=CC=CC=C3C)CN4C=NC5=C(N=CN=C54)N
Procedure, shortened: as §1

[4] = compound: Cc1sc2c(c1C)C(c1ccc(Cl)cc1)=N[C@@H](CC(=O)OC(C)(C)C)c1nnc(C)n1-2
Procedure, shortened: as §1

[5] = compound: c1ccc([C@@H]2C[C@H]2NC2CCNCC2)cc1
Procedure, shortened: as §1

Measured: log2 fold change

FBXO22 (UniProt Q8NEZ5)
inactive: [1] 0.039 | [2] 0.014 | [3] 0.024 | [4] -0.025 | [5] -0.033

FKBP14 (UniProt Q9NWM8)
inactive: [1] 0.01 | [2] 0.104 | [3] -0.036 | [4] 0.026 | [5] -0.032

FIP1L1 (UniProt Q6UN15)
inactive: [1] 0.045 | [2] -0.073 | [3] -0.017 | [4] 0.064 | [5] 0.076
